Here are results for 4 molecules from article PMC8989981, “Negative feedback of SNRK to circ-SNRK regulates cardiac function post-myocardial infarction” (Cell Death and Differentiation, 2021).

Test [1] deals with T1, SNRK (sucrose nonfermenting 1-related kinase) (rat (endogenous in NRCMs)) (UniProt Q63553).
T1 sequence: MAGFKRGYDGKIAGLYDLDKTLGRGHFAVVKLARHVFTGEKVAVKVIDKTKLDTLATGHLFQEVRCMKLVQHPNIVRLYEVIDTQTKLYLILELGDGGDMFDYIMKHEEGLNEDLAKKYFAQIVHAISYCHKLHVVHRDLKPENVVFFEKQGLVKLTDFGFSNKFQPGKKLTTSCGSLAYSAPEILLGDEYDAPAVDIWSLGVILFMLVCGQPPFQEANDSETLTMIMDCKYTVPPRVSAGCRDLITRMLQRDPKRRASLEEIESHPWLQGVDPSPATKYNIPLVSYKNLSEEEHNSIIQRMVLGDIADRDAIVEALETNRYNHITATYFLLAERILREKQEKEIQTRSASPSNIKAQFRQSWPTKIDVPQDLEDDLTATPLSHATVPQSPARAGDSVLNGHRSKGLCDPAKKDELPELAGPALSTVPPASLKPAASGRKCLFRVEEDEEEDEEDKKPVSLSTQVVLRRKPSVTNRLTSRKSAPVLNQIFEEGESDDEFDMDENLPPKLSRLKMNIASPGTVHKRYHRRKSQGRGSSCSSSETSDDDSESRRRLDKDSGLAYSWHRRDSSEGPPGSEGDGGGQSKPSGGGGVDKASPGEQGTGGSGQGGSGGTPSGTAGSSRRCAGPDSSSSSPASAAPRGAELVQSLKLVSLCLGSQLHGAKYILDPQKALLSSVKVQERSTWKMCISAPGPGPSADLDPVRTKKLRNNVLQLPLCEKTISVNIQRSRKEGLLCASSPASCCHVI
Briefly: co-IP; proteins of NRCMs (neonatal rat cardiomyocytes); precipitation of SNRK, NOVA1 or activated Caspase 3 and immunoblot of the partner; no co-IP method is described.

In test [2] the target is cleaved-Caspase 3 (rat (endogenous in NRCMs)). The description is as above.

No constants are given. Whether binding was seen depends on the method and setting. Binding seen in cells or lysates may run through a third protein. Binding calls can cover weak binding; strength is not graded here.

As for “cleaved-Caspase 3 (rat (endogenous in NRCMs)) (enzyme)”, the binding result in test [1] was “binds”.
In the case of “activated Caspase 6 (rat (endogenous in NRCMs)) (enzyme)”, the binding entry in test [1] is “no binding”.
Take “activated Caspase 7 (rat (endogenous in NRCMs)) (enzyme)”: the binding result in test [1] was “no binding”.

B1: SNRK (sucrose nonfermenting 1-related kinase) (protein, UniProt Q63553 1-746)
chain: MAGFKRGYDGKIAGLYDLDKTLGRGHFAVVKLARHVFTGEKVAVKVIDKTKLDTLATGHLFQEVRCMKLVQHPNIVRLYEVIDTQTKLYLILELGDGGDMFDYIMKHEEGLNEDLAKKYFAQIVHAISYCHKLHVVHRDLKPENVVFFEKQGLVKLTDFGFSNKFQPGKKLTTSCGSLAYSAPEILLGDEYDAPAVDIWSLGVILFMLVCGQPPFQEANDSETLTMIMDCKYTVPPRVSAGCRDLITRMLQRDPKRRASLEEIESHPWLQGVDPSPATKYNIPLVSYKNLSEEEHNSIIQRMVLGDIADRDAIVEALETNRYNHITATYFLLAERILREKQEKEIQTRSASPSNIKAQFRQSWPTKIDVPQDLEDDLTATPLSHATVPQSPARAGDSVLNGHRSKGLCDPAKKDELPELAGPALSTVPPASLKPAASGRKCLFRVEEDEEEDEEDKKPVSLSTQVVLRRKPSVTNRLTSRKSAPVLNQIFEEGESDDEFDMDENLPPKLSRLKMNIASPGTVHKRYHRRKSQGRGSSCSSSETSDDDSESRRRLDKDSGLAYSWHRRDSSEGPPGSEGDGGGQSKPSGGGGVDKASPGEQGTGGSGQGGSGGTPSGTAGSSRRCAGPDSSSSSPASAAPRGAELVQSLKLVSLCLGSQLHGAKYILDPQKALLSSVKVQERSTWKMCISAPGPGPSADLDPVRTKKLRNNVLQLPLCEKTISVNIQRSRKEGLLCASSPASCCHVI
Turning to B1, in test [2], the binding result is on record as “binds”.
